Reference: patent US8911953B2 (Thrasos Innovation, Inc., priority 2005, dated 2014)

Assay: Fmoc solid-phase peptide synthesis; Fmoc-Ser(tBu) resin; DIC/HOBt
Conditions: whole synthesis, scale 33 mmol

H-CYYDNSSSVLCKRYRS-OH (cysteine pairing not given here)
crude mass: 69 g
